Among the data in doi:10.1101/2022.05.12.491658 are binding values, retold here.

By UniProt entry, the sequences of proteins in these tests, tags left out.
UniProt Q9S7Q7: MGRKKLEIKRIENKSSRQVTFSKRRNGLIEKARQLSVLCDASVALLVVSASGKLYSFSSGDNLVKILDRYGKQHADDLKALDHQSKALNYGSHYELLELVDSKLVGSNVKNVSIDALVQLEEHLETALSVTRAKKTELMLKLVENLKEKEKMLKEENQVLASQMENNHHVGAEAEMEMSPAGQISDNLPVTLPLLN

Like-named read-outs stand apart in the source and are kept apart here. No constants are given. Whether binding was seen depends on the method and setting. Some results given as binding are weak or reduced against the parent protein; the word gives no strength. For some of these results: Sequences can lack the tags named with a protein.

Common to all, as to experiment: two-hybrid
The target in test [1] is FLOWERING LOCUS C (FLC) (Arabidopsis thaliana) (UniProt Q9S7Q7).
The target of test [2] is T1, FLOWERING LOCUS D (FLD) (Arabidopsis thaliana) (UniProt Q9CAE3).
T1 sequence: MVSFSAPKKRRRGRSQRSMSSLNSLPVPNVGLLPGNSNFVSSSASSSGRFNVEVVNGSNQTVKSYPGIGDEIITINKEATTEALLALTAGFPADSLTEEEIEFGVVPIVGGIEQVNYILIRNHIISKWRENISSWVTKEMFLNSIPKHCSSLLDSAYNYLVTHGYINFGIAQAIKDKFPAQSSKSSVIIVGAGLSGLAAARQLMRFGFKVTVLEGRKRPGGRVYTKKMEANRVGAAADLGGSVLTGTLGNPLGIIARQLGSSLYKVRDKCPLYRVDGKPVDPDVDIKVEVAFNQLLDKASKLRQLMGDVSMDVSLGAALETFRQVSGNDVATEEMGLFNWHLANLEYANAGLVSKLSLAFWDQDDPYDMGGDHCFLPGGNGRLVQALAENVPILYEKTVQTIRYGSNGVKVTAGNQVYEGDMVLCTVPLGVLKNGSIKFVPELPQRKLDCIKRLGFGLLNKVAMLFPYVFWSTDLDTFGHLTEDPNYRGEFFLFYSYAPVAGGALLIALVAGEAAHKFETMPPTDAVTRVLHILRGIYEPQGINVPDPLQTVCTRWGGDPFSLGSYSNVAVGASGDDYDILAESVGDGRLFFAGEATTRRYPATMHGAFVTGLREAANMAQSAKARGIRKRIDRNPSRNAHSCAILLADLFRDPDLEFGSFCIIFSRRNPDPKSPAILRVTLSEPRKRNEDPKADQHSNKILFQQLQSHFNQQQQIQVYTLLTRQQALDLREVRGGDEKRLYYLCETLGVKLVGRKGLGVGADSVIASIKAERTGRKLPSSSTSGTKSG

Test [3] addresses T2, HISTONE … 5 (HDA5) (Arabidopsis thaliana) (UniProt Q8RX28).
T2 sequence: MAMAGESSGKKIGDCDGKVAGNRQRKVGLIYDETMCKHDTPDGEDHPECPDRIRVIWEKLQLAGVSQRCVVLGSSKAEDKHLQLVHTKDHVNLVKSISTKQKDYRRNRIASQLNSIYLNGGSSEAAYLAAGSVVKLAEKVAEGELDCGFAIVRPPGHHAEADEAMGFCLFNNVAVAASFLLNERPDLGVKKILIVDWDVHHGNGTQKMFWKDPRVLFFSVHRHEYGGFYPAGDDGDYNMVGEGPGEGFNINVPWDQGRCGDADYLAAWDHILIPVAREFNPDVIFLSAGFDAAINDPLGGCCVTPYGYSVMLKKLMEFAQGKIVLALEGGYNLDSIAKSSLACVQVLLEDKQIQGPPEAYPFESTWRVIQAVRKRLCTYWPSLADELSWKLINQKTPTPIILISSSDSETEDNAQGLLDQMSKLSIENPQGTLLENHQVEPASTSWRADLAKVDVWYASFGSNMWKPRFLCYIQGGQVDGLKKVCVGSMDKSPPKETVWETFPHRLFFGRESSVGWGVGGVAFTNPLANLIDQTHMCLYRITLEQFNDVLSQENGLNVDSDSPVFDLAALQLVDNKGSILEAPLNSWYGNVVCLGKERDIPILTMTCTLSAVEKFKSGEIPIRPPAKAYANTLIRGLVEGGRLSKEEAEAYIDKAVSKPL

Test [4] concerns the target T3, LSD1-like 2 (LDL2) (Arabidopsis thaliana) (UniProt Q9LID0).
T3 sequence: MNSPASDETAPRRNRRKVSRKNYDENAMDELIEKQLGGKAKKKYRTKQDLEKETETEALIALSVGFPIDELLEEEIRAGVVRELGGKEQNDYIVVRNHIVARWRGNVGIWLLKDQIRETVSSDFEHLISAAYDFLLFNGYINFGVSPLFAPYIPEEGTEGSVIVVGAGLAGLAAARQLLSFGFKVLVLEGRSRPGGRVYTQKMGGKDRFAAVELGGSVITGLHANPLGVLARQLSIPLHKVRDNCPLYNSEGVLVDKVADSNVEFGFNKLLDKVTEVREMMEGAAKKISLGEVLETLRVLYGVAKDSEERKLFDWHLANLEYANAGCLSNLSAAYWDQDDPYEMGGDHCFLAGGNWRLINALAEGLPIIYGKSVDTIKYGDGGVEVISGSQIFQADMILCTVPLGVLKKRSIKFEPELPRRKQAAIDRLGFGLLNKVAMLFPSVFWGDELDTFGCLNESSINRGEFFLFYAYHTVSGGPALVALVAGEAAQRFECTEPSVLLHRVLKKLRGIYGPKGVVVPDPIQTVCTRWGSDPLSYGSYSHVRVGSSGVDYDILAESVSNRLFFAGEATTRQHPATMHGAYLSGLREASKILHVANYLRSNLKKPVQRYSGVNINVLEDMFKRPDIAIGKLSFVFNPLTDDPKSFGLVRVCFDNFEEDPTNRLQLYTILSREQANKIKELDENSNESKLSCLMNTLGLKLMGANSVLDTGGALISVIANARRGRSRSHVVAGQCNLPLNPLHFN

For test [5], the target named is FLOWERING LOCUS C (FLC) (Arabidopsis thaliana) (UniProt Q9S7Q7). The source holds these as a separate data set.
For test [6], the target named is MADS … FLOWERING 5 (MAF5) (Arabidopsis thaliana) (UniProt Q683D7).
The target of test [7] is SHORT … PHASE (SVP) (Arabidopsis thaliana) (UniProt Q9FVC1).

Turning to “SHORT … PHASE (SVP) (from UniProt Q9FVC1 1-240)”, in test [1], the binding entry is listed as “binds”.

B1: LSD1-like 1 (LDL1) (protein, UniProt Q8VXV7 1-844)
chain: MSTETKETRPETKPEDLGTHTTVDVPGEEPLGELIADDVNEVVSDASATETDFSLSPSQSEQNIEEDGQNSLDDQSPLTELQPLPLPPPLPVEARISESLGEEESSDLVTEQQSQNPNAAEPGPRARKRRRRKRFFTEINANPAFSRNRRTSVGKEVDSEALIAMSVGFPVYSLTEEEIEANVVSIIGGKDQANYIVVRNHIIALWRSNVSNWLTRDHALESIRAEHKTLVDTAYNFLLEHGYINFGLAPVIKEAKLRSFDGVEPPNVVVVGAGLAGLVAARQLLSMGFRVLVLEGRDRPGGRVKTRKMKGGDGVEAMADVGGSVLTGINGNPLGVLARQLGLPLHKVRDICPLYLPNGELADASVDSKIEASFNKLLDRVCKLRQSMIEENKSVDVPLGEALETFRLVYGVAEDQQERMLLDWHLANLEYANATLLGNLSMAYWDQDDPYEMGGDHCFIPGGNEIFVHALAENLPIFYGSTVESIRYGSNGVLVYTGNKEFHCDMALCTVPLGVLKKGSIEFYPELPHKKKEAIQRLGFGLLNKVAMLFPCNFWGEEIDTFGRLTEDPSTRGEFFLFYSYSSVSGGPLLVALVAGDAAERFETLSPTDSVKRVLQILRGIYHPKGIVVPDPVQALCSRWGQDKFSYGSYSYVAVGSSGDDYDILAESVGDGRVFFAGEATNRQYPATMHGAFLSGMREAANILRVARRRASSSALNPNQICIDKEEEVDEEEDRCLDQLFETPDLTFGNFSVLFTPNSDEPESMSLLRVRIQMEKPESGLWLYGLVTRKQAIELGEMDGDELRNEYLREKLGLVPVERKSLSQEGESMISSLKAARLNRQIFD
Consider B1, for which the binding result in test [2], in test [3] and in test [4] was “no binding” throughout.

B2: MADS … FLOWERING 5 (MAF5) (protein, UniProt Q683D7 1-198)
chain: MGRRRVEIKRIENKSSRQVTFCKRRNGLMEKARQLSILCGSSVALFIVSSTGKLYNSSSGDSMAKIISRFKIQQADDPETLDLEDKTQDYLSHKELLEIVQRKIEEAKGDNVSIESLISMEEQLKSALSVIRARKTELLMELVKNLQDKEKLLKEKNKVLASEVGKLKKILETGDERAVMSPENSSGHSPPETLPLLK
For B2, the binding entry in test [5], in test [6] and in test [7] was “binds” each time.
